Tested on: RNA polymerase II
Test: Inhibition of phosphorylation of RNA polymerase II in NCI-H82 cells
Type: cell-based
Details: dose-response curve fit, 2 hours
Protocol: CDK12 and CDK13 phosphorylate RNA polymerase II. The ability of compound 1 to inhibit phosphorylation of RNA polymerase II was analyzed in NCI-H82 cells. 200,000 cells were plated in each well of a 96 well MSD plate. Cells were treated with compound 1, THZ531 (a positive control), or E9 at concentrations between 4 μM to 126.4 pM (0.5 log serial dilutions) for 2 hours. THZ531 and E9 are further discussed in Gao et al, Cell Chemical Biology 2017. The amount of phosphorylated RNA polymerase II and the total amount of RNA polymerase II was analyzed using antibodies. The values were normalized by taking the ratio of the phosphorylated RNA polymerase II to the total RNA polymerase II. As depicted in FIG. 3A (THZ531), FIG. 3B (Compound 1), and Table 6, increasing the concentration of compound 1 results in a dose-specific increase in the inhibition of phosphorylation of RNA polymerase II.

| Structure (SMILES) | Bottom | Hill Slope | Top |
| --- | --- | --- | --- |
| C=CC(=O)Nc1ccc(C(=O)N2CC[C@@H](Nc3ncc(Cl)c(OC)n3)C2)cc1 [Compound 1, (R)-N-(4-(3-((5-chloro-4-methoxypyrimidin-2-yl)amino)pyrrolidine-1-carbonyl)phenyl)acrylamide] | 0.1958 | 1.438 | 85.35 |
| CN(C)C/C=C/C(=O)Nc1ccc(C(=O)N2CCC[C@@H](Nc3ncc(Cl)c(-c4c[nH]c5ccccc45)n3)C2)cc1 [THZ531, reference compound] | 9.677 | 1.412 | 83.25 |
